From the supplement of paper PMC10331698
± gives the standard deviation of the averaged measurements. Small differences around the control level are noise.

Experiments:
Assay in all cases: level (log10 ratio to DMSO vehicle control); higher = higher biomarker level / cell amount than vehicle control
[1] = compound: C=C(C)C(=O)OCCC(F)(F)C(F)(F)C(F)(F)C(F)(F)C(F)(F)C(F)(F)F [6:2 Fluorotelomer methacrylate] (in DMSO); conditions: 2200 nM
Procedure: (§1)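 BioMAP Diversity Plus panel of 12 human primary cell co-culture systems (3C, 4H, LPS, SAg, BT, BF4T, BE3C, CASM3C, HDF3CGF, KF3CT, MyoF, Mphg). Compounds were added 1 h before stimulation and left for 24 h (MyoF 48 h; BT 72 h for soluble read-outs or 6 d for IgG). Biomarkers were read by ELISA, cytotoxicity by SRB, PBMC viability and proliferation by Alamar Blue. Each well value was divided by the mean of 8 DMSO control wells on the same plate and log10 transformed; duplicate blinded samples were tested at 4 concentrations.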

[2] = compound: CNS(=O)(=O)C(F)(F)C(F)(F)C(F)(F)C(F)(F)C(F)(F)C(F)(F)C(F)(F)C(F)(F)F [N-Methylperfluorooctanesulfonamide] (in DMSO); conditions: 2200 nM
Procedure: as §1

[3] = compound: FC(F)(F)C(F)(F)C(F)(F)C(F)(F)CCI [1H,1H,2H,2H-Perfluorohexyl iodide] (in DMSO); conditions: 2200 nM
Procedure: as §1

[4] = compound: FC(F)(F)C(F)(F)CNCC(F)(F)C(F)(F)F [Bis(1H,1H-perfluoropropyl)amine] (in DMSO); conditions: 2200 nM
Procedure: as §1

[5] = compound: FC(F)(F)COC(OCC(F)(F)F)OCC(F)(F)F [tris(Trifluoroethoxy)methane] (in DMSO); conditions: 2200 nM
Procedure: as §1

Hexafluoroglutaric acid = compound: O=C(O)C(F)(F)C(F)(F)C(F)(F)C(=O)O [Hexafluoroglutaric acid] (in DMSO)
Procedure: as §1

Perfluorohexanoic acid = compound: O=C(O)C(F)(F)C(F)(F)C(F)(F)C(F)(F)C(F)(F)F [Perfluorohexanoic acid] (in DMSO)
Procedure: as §1

[6] = compound: O=C(O)C(F)(F)C(F)(F)C(F)(F)OC(F)(C(F)(F)F)C(F)(F)F [Perfluoro-4-isopropoxybutanoic acid] (in DMSO); conditions: 2200 nM
Procedure: as §1

[7] = compound: O=C(O)C(F)(OC(F)(F)C(F)(F)C(F)(F)F)C(F)(F)F [Ammonium perfluoro-2-methyl-3-oxahexanoate] (in Water)
Procedure: as §1

[8] = compound: O=C(O)C(F)(OC(F)(F)C(F)(OC(F)(F)C(F)(OC(F)(F)C(F)(F)C(F)(F)F)C(F)(F)F)C(F)(F)F)C(F)(F)F [Perfluoro-(2,5,8-trimethyl-3,6,9-trioxadodecanoic)acid] (in DMSO); conditions: 370 nM
Procedure: as §1

[9] = compound: O=C(O)CCC(F)(F)C(F)(F)C(F)(F)F [3:3 Fluorotelomer carboxylic acid] (in DMSO); conditions: 2200 nM
Procedure: as §1

[10] = compound: O=S(=O)(O)C(F)(F)C(F)(F)C(F)(F)C(F)(F)F [Perfluorobutanesulfonic acid] (in DMSO)
Procedure: as §1

[11] = compound: OCC(F)(F)C(F)(F)C(F)(F)C(F)(F)C(F)(F)C(F)(F)CO [1H,1H,8H,8H-Perfluorooctane-1,8-diol] (in DMSO); conditions: 2200 nM
Procedure: as §1

[12] = compound: OCC(F)(F)C(F)(F)C(F)(F)C(F)(F)C(F)(F)C(F)(F)F [6:1 Fluorotelomer alcohol] (in DMSO); conditions: 2200 nM
Procedure: as §1

[13] = compound: OCC(F)(F)C(F)(F)C(F)(F)C(F)F [1H,1H,5H-Perfluoropentanol] (in DMSO); conditions: 2200 nM
Procedure: as §1

[14] = compound: OCC(F)(F)OC(F)(F)C(F)(F)OC(F)(F)CO [1H,1H,8H,8H-Perfluoro-3,6-dioxaoctane-1,8-diol] (in DMSO); conditions: 2200 nM
Procedure: as §1

[15] = compound: OCCCC(F)(F)C(F)(F)C(F)(F)C(F)(F)C(F)(F)C(F)(F)C(F)(F)C(F)(F)F [3-(Perfluorooctyl)propanol] (in DMSO); conditions: 2200 nM
Procedure: as §1

Row | Test System | level (log10) [1] | level (log10) [2] | level (log10) [3] | level (log10) [4] | level (log10) [5] | level (log10) (Hexafluoroglutaric acid; 2200 nM) | level (log10) (Hexafluoroglutaric acid; 6700 nM) | level (log10) (Hexafluoroglutaric acid; 20000 nM) | level (log10) (Hexafluoroglutaric acid; 60000 nM) | level (log10) (Perfluorohexanoic acid; 2200 nM) | level (log10) (Perfluorohexanoic acid; 6700 nM) | level (log10) (Perfluorohexanoic acid; 20000 nM) | level (log10) (Perfluorohexanoic acid; 60000 nM) | level (log10) [6] | level (log10) ([7]; 2200 nM) | level (log10) ([7]; 6700 nM) | level (log10) ([7]; 20000 nM) | level (log10) ([7]; 60000 nM) | level (log10) [8] | level (log10) [9] | level (log10) ([10]; 2200 nM) | level (log10) ([10]; 6700 nM) | level (log10) ([10]; 20000 nM) | level (log10) ([10]; 60000 nM) | level (log10) [11] | level (log10) [12] | level (log10) [13] | level (log10) [14] | level (log10) [15]
1 | 4H:CD87/uPAR | -0.003 ± 0.073 | 0.081 ± 0.051 | 0.017 ± 0.024 | -0.0545 ± 0.011 | 0.0375 ± 0.044 | -0.0185 ± 0.016 | -0.046 ± 0.023 | -0.027 ± 0.057 | -0.005 ± 0.031 | 0.0075 ± 0.011 | 0.0025 ± 0.042 | -0.002 ± 0.011 | 0.0205 ± 0.039 | -0.004 ± 0.014 | -0.01 ± 0.016 | -0.033 ± 0.027 | -0.024 ± 0.033 | -0.06 ± 0.0014 | 0.0105 ± 0.066 | -0.025 ± 0.011 | 0.038 ± 0.09 | 0.0115 ± 0.052 | 0.0235 ± 0.022 | 0.025 ± 0.021 | -0.004 ± 0.021 | 0.009 ± 0.03 | 0.0225 ± 0.021 | 0.001 ± 0.0042 | -0.032 ± 0.013
2 | BF4T:tPA | -0.017 ± 0.0042 | 0.0505 ± 0.044 | 0.0275 ± 0.039 | -0.027 ± 0.065 | 0.014 ± 0.047 | 0.013 ± 0.079 | -0.0195 ± 0.018 | -0.0205 ± 0.028 | -0.0045 ± 0.011 | 0.002 ± 0.031 | -0.0045 ± 0.0064 | -0.0035 ± 0.019 | 0.0055 ± 0.013 | 0.016 ± 0.059 | 0.0505 ± 0.015 | 0.0405 ± 0.0078 | 0.0575 ± 0.033 | 0.0185 ± 0.019 | 0.0075 ± 0.022 | 0.0145 ± 0.047 | -0.0105 ± 0.015 | -0.0115 ± 0.021 | 0.0025 ± 0.0092 | 0.0115 ± 0.018 | 0.007 ± 0.011 | -0.0015 ± 0.028 | -0.0025 ± 0.0035 | 0.009 ± 0.045 | 0.0135 ± 0.04
3 | CASM3C:HLA-DR | 0.001 ± 0.03 | 0.0125 ± 0.076 | 0.0345 ± 0.08 | 0.022 ± 0.048 | -0.002 ± 0.014 | 0.0195 ± 0.026 | 0.0165 ± 0.049 | -0.015 ± 0.045 | 0.0055 ± 0.019 | 0.0275 ± 0.00071 | 0.004 ± 0.0099 | -0.004 ± 0.0057 | -0.004 ± 0.011 | 0.018 ± 0.089 | 0.046 ± 0.045 | 0.0195 ± 0.054 | 0.01 ± 0.059 | 0.004 ± 0.0071 | 0.0005 ± 0.032 | 0.0155 ± 0.025 | 0.0145 ± 0.019 | -0.0085 ± 0.0035 | -0.0075 ± 0.00071 | -0.0025 ± 0.0078 | -0.0025 ± 0.013 | 0.008 ± 0.02 | 0.009 ± 0.037 | 0.006 ± 0.0028 | -0.0225 ± 0.018
4 | LPS:M-CSF | 0.0045 ± 0.0021 | -0.003 ± 0.014 | 0.0155 ± 0.0021 | 0.026 ± 0.023 | 0.008 ± 0.014 | 0.003 ± 0.035 | 0.024 ± 0.047 | -0.019 ± 0.028 | -0.034 ± 0.051 | 0.0065 ± 0.0021 | 0.002 ± 0.0099 | -0.0125 ± 0.015 | -0.0055 ± 0.025 | 0.012 ± 0.025 | -0.0145 ± 0.026 | -0.02 ± 0.024 | -0.009 ± 0.016 | -0.0045 ± 0.005 | -0.0105 ± 0.0021 | 0 ± 0.013 | -0.0155 ± 0.015 | 0.021 ± 0.016 | -0.0035 ± 0.00071 | 0.01 ± 0.014 | 0.037 ± 0.011 | 0.006 ± 0.037 | 0.017 ± 0.03 | -0.006 ± 0.0028 | 0.003 ± 0.058
5 | BE3C:IL-1alpha | -0.005 ± 0.017 | 0.017 ± 0.033 | 0.018 ± 0.03 | 0.0255 ± 0.039 | 0.043 ± 0.052 | -0.01 ± 0.017 | -0.014 ± 0.027 | -0.0295 ± 0.005 | -0.0045 ± 0.016 | 0 ± 0.0085 | 0.005 ± 0.0071 | -0.0115 ± 0.0035 | -0.002 ± 0.0042 | 0.031 ± 0.035 | -0.005 | -0.0215 ± 0.013 | -0.001 ± 0.0028 | -0.0085 ± 0.005 | -0.0095 ± 0.005 | 0.036 ± 0.064 | -0.0115 ± 0.0021 | -0.0175 ± 0.012 | -0.013 ± 0.0085 | -0.0075 ± 0.012 | 0.0255 ± 0.039 | 0.0135 ± 0.018 | 0.0005 ± 0.028 | 0.018 ± 0.04 | 0.028 ± 0.04
6 | lMphg:CD62E/E-Selectin | 0.0165 ± 0.049 | -0.0235 ± 0.03 | -0.0045 ± 0.074 | 0.0105 ± 0.012 | -0.019 ± 0.051 | 0.0285 ± 0.005 | -0.0065 ± 0.026 | 0.001 ± 0.02 | -0.0165 ± 0.043 | -0.016 ± 0.0042 | 0.0025 ± 0.016 | 0 ± 0.0014 | -0.014 ± 0.0042 | -0.024 ± 0.014 | 0.0245 ± 0.00071 | 0.013 ± 0.0071 | 0.002 ± 0.0071 | 0.0245 ± 0.013 | -0.009 ± 0.0042 | 0.0075 ± 0.022 | 0.043 ± 0.011 | 0.0405 ± 0.0035 | 0.041 ± 0.044 | 0.0215 ± 0.046 | 0.018 ± 0.064 | 0.014 ± 0.013 | -0.0025 ± 0.018 | -0.0205 ± 0.056 | -0.025 ± 0.071
7 | HDF3CGF:CXCL10/IP-10 | -0.0055 ± 0.005 | -0.059 ± 0.041 | 0.003 ± 0.033 | 0.0075 ± 0.023 | 0 ± 0.0014 | -0.019 ± 0.057 | 0.0035 ± 0.021 | -0.008 ± 0.0071 | -0.011 ± 0.037 | -0.0235 ± 0.022 | -0.0135 ± 0.023 | -0.0215 ± 0.0035 | -0.0235 ± 0.013 | -0.015 ± 0.0071 | 0.007 ± 0.014 | 0.002 ± 0.013 | -0.0085 ± 0.00071 | -0.0025 ± 0.012 | 0.0155 ± 0.0092 | -0.006 ± 0.013 | 0.005 ± 0.0042 | -0.0075 ± 0.0078 | -0.0105 ± 0.005 | -0.0195 ± 0.0021 | 0.0035 ± 0.016 | -0.007 ± 0.0042 | -0.01 ± 0.024 | 0.002 ± 0.017 | -0.012 ± 0.021
